The supplement of paper PMC10849652
The list shows a part of the results.

Amino acid sequences for entries named in this document (tags omitted). A change or cut given only in a name is not applied to a line headed by its entry.
UniProt Q9UPY3: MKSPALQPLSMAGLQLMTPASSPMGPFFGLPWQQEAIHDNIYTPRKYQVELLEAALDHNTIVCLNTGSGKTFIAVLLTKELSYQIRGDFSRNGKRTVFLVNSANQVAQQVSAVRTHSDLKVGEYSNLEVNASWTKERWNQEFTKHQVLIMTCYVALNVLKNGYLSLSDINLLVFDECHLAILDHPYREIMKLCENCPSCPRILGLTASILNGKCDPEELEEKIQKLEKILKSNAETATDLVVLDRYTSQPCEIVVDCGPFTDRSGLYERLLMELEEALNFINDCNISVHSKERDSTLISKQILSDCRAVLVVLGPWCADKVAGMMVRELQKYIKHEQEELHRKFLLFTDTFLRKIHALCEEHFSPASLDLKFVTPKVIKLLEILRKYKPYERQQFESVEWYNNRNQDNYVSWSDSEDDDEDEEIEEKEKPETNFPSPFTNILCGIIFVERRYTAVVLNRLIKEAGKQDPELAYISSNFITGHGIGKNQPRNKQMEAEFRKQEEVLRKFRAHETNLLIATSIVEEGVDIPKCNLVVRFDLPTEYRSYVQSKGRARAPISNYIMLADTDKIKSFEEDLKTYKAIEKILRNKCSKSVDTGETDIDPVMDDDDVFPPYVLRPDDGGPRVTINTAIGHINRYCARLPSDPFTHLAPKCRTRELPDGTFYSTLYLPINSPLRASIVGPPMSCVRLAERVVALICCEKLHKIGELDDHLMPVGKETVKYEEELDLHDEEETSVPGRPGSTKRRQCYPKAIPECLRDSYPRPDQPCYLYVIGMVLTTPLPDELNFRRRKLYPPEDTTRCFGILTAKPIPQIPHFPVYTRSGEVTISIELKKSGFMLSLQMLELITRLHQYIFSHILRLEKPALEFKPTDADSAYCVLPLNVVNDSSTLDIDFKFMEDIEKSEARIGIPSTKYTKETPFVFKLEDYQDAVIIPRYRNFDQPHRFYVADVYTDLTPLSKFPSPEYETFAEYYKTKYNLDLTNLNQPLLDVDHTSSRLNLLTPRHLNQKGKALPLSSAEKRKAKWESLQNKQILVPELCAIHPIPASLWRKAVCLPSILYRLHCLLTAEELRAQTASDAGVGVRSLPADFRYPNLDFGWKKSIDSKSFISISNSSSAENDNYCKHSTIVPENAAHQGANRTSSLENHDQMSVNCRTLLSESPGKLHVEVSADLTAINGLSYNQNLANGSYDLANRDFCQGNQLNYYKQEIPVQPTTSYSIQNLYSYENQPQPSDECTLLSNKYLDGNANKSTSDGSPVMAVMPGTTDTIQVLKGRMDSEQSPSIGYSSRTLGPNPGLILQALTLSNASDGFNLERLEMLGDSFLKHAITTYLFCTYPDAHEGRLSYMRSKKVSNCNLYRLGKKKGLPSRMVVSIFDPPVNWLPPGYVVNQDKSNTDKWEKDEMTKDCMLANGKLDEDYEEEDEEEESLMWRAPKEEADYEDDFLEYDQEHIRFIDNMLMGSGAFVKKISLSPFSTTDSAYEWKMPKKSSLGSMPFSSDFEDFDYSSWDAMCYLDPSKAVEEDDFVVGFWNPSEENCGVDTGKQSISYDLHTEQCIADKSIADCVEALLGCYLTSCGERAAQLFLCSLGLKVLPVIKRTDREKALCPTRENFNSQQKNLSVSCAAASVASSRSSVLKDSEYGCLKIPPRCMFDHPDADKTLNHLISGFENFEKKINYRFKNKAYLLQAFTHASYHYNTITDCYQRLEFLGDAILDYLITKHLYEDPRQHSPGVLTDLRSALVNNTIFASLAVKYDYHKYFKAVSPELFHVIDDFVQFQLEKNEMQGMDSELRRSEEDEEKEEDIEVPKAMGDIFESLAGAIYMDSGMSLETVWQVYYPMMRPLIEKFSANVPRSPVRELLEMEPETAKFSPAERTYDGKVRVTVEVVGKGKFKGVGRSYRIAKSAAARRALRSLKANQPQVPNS
UniProt Q5QJE6: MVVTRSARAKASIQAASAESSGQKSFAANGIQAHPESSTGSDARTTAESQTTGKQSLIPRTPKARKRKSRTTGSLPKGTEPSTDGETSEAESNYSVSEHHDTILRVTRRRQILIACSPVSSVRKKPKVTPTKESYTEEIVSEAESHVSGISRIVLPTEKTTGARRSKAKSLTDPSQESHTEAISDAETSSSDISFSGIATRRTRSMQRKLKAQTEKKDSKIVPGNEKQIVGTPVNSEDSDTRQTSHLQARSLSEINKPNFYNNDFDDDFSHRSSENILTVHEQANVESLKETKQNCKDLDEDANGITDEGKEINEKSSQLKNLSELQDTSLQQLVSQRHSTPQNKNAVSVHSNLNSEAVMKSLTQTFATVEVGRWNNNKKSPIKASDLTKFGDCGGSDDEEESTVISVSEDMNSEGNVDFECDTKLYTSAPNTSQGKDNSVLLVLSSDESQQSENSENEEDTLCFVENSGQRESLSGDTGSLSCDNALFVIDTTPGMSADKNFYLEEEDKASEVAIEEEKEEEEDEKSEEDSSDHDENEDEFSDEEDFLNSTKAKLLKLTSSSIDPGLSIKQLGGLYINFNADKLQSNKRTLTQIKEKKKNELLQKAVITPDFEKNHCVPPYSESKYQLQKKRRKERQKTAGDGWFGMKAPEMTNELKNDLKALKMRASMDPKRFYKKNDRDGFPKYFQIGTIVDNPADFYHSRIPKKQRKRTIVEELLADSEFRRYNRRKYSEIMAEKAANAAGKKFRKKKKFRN
UniProt Q9NSV4, whole entry, looked up: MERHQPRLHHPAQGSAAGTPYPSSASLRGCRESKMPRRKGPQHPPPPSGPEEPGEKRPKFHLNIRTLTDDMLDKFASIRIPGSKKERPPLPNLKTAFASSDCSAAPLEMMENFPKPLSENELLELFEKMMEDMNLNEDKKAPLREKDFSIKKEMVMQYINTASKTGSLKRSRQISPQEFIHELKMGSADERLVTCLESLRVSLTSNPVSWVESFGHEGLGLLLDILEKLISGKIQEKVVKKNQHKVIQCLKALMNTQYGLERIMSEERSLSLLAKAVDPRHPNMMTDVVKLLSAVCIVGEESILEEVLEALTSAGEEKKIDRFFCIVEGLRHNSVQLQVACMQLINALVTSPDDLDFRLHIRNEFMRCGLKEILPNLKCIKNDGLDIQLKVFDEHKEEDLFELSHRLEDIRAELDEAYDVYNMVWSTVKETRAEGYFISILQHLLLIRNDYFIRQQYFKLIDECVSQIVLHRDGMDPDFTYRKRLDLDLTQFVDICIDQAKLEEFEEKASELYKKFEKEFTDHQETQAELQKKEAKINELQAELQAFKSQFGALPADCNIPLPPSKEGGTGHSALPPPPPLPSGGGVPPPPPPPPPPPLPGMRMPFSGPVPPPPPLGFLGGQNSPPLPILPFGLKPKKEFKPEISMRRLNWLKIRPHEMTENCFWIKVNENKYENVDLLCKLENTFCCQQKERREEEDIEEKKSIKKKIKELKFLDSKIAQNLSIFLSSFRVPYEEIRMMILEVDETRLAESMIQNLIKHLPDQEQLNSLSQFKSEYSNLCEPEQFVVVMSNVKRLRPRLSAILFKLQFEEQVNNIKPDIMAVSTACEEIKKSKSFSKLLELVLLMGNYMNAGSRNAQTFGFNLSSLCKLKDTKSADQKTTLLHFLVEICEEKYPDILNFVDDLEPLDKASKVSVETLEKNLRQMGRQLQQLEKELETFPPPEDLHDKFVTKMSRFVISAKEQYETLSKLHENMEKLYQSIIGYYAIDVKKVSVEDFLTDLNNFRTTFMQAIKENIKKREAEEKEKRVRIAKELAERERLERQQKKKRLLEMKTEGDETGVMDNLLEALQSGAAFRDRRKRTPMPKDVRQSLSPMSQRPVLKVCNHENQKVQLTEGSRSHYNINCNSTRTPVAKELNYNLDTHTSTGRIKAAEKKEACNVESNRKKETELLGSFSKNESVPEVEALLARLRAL
UniProt O00429, whole entry, looked up: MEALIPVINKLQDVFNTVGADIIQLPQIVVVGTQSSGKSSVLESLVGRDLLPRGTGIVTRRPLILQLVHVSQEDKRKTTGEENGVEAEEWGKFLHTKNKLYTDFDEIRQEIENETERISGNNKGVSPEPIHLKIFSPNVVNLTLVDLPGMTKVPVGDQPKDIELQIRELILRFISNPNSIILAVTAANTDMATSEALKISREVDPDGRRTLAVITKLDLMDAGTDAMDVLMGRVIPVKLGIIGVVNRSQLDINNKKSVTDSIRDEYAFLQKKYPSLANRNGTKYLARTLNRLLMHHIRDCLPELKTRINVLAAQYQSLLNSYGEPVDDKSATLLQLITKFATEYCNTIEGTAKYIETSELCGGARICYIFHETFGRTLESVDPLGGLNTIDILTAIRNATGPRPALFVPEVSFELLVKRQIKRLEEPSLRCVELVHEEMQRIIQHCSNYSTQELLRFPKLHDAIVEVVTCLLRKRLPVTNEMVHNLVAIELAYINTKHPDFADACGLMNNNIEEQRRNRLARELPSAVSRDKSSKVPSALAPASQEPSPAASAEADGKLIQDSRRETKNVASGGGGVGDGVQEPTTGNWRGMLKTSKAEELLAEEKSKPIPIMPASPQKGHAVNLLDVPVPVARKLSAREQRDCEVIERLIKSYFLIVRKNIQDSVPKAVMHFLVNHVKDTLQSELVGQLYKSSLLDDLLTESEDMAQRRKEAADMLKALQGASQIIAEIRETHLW
UniProt O75907: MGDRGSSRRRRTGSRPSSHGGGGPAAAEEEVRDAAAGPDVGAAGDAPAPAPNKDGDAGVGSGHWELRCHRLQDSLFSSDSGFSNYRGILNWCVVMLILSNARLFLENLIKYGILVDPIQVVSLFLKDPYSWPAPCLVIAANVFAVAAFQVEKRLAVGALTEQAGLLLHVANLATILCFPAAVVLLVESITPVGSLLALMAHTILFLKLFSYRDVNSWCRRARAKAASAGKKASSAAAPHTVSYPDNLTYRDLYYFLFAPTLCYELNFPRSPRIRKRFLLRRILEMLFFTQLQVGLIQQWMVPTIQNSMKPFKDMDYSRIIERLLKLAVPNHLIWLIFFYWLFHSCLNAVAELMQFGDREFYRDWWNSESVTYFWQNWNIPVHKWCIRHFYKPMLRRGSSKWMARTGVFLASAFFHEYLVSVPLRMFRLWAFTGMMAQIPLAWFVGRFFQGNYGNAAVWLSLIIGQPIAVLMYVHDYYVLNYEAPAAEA
UniProt Q9H2U1: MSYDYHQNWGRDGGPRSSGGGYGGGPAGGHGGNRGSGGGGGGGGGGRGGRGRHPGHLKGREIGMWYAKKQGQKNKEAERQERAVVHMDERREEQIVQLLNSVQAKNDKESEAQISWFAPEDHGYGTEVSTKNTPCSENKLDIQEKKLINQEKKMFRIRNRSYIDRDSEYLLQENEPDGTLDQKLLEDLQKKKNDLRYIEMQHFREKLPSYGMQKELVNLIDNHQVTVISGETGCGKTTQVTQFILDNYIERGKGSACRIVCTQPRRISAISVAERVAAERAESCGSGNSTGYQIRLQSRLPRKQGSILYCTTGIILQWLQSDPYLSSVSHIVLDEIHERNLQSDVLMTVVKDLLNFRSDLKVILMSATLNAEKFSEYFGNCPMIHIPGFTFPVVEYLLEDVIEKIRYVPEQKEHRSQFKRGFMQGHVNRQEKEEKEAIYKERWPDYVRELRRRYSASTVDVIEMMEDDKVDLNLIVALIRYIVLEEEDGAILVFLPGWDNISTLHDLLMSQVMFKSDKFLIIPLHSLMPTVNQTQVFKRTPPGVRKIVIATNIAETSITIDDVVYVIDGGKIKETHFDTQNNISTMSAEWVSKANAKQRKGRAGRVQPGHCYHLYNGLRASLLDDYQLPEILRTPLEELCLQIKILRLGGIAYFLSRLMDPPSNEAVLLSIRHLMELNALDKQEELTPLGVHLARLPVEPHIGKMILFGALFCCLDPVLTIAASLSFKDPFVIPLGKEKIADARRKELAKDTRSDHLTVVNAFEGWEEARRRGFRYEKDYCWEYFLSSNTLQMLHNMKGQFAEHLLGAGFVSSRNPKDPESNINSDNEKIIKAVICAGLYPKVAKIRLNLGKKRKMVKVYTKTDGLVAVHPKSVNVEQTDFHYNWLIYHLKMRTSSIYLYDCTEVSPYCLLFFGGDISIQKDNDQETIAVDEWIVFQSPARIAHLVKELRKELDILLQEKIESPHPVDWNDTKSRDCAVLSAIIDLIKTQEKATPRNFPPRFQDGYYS
UniProt Q13268: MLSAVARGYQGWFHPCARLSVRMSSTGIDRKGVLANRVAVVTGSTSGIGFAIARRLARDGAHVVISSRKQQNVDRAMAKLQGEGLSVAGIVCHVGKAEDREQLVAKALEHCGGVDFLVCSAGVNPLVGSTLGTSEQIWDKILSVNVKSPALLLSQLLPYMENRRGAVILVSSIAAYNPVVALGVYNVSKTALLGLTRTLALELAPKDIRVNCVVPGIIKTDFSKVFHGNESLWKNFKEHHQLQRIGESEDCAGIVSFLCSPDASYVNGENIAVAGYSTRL

What was measured:
Experiment in all cases: log2 fold change, soluble protein after heating vs DMSO (PISA); higher = thermal stabilisation; K562 lysate, 10 uM; active = over 0.2 and 3.5 SD of the protein, either way, in both replicates (recomputed)
lapatinib = compound: CS(=O)(=O)CCNCc1ccc(-c2ccc3ncnc(Nc4ccc(OCc5cccc(F)c5)c(Cl)c4)c3c2)o1 [lapatinib]
In short: (§1)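 Dounce homogenisation of K562 pellets in PBS pH 7.4 with 1 mM MgCl2 produced a crude extract, used at 1 mg/mL protein. Exposure to 10 μM compound lasted 30 min, and aliquots were then heated for 3 min across 48°C-58°C, pooled and brought to 0.5% NP-40 at 4°C. The supernatant after 21,000xg for 90 min was quantified by TMTpro 16plex LC-MS/MS with channel sums equalised. Duplicate values are given as log-two fold change in thermal stability relative to solvent controls.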

pictilisib = compound: CS(=O)(=O)N1CCN(Cc2cc3nc(-c4cccc5[nH]ncc45)nc(N4CCOCC4)c3s2)CC1 [pictilisib]
In short: as §1

crizotinib = compound: C[C@@H](Oc1cc(-c2cnn(C3CCNCC3)c2)cnc1N)c1c(Cl)ccc(F)c1Cl [crizotinib]
In short: as §1

[1] = compound: C[C@H](C1=CC=C(C=C1)C(=O)NC2=C3C=CNC3=NC=C2)N
In short: as §1

duvelisib = compound: C[C@H](Nc1ncnc2nc[nH]c12)c1cc2cccc(Cl)c2c(=O)n1-c1ccccc1 [duvelisib]
In short: as §1

gandotinib = compound: Cc1cc(Nc2cc(CN3CCOCC3)c3nc(C)c(Cc4ccc(Cl)cc4F)n3n2)n[nH]1 [gandotinib]
In short: as §1

tozasertib = compound: Cc1cc(Nc2cc(N3CCN(C)CC3)nc(Sc3ccc(NC(=O)C4CC4)cc3)n2)n[nH]1 [tozasertib]
In short: as §1

doramapimod = compound: Cc1ccc(-n2nc(C(C)(C)C)cc2NC(=O)Nc2ccc(OCCN3CCOCC3)c3ccccc23)cc1 [doramapimod]
In short: as §1

bafetinib = compound: Cc1ccc(NC(=O)c2ccc(CN3CC[C@H](N(C)C)C3)c(C(F)(F)F)c2)cc1Nc1nccc(-c2cncnc2)n1 [bafetinib]
In short: as §1

[2] = compound: Cc1cccc(CC(=O)N2CCc3c2ccc(-c2cn(C)c4ncnc(N)c24)c3F)n1
In short: as §1

nilotinib = compound: Cc1cn(-c2cc(NC(=O)c3ccc(C)c(Nc4nccc(-c5cccnc5)n4)c3)cc(C(F)(F)F)c2)cn1 [nilotinib]
In short: as §1

[3] = compound: Cc1nc(Nc2n[nH]c3c2CN(C(=O)N[C@H](CN(C)C)c2ccccc2)C3(C)C)c2sccc2n1
In short: as §1

dasatinib = compound: Cc1nc(Nc2ncc(C(=O)Nc3c(C)cccc3Cl)s2)cc(N2CCN(CCO)CC2)n1 [dasatinib]
In short: as §1

[4] = compound: Cc1ncc(-c2ccnc(Nc3ccc(S(C)(=O)=O)cc3)n2)n1C(C)C
In short: as §1

[5] = compound: Cn1cc(-c2ccc3c(c2)CCN3C(=O)Cc2cccc(C(F)(F)F)c2)c2c(N)ncnc21
In short: as §1

quisinostat = compound: Cn1cc(CNCC2CCN(c3ncc(C(=O)NO)cn3)CC2)c2ccccc21 [quisinostat]
In short: as §1

tipifarnib = compound: Cn1cncc1[C@@](N)(c1ccc(Cl)cc1)c1ccc2c(c1)c(-c1cccc(Cl)c1)cc(=O)n2C [tipifarnib]
In short: as §1

[6] = compound: NC(=O)Nc1cc(-c2cccc(F)c2)sc1C(=O)N[C@H]1CCCNC1
In short: as §1

[7] = compound: NC(=O)c1cnc(N[C@@H]2CCCC[C@@H]2N)nc1Nc1cccc(-n2nccn2)c1
In short: as §1

[8] = compound: NC1(c2ccc(-c3nc4ccn5c(=O)[nH]nc5c4cc3-c3ccccc3)cc2)CCC1
In short: as §1

Measured: log2 fold change

DICER1 (UniProt Q9UPY3)
inactive: lapatinib -0.02 | pictilisib -0.071 | crizotinib -0.075 | [1] -0.075 | duvelisib -0.05 | gandotinib 0.02 | tozasertib 0.035 | doramapimod 0.039 | bafetinib -0.11 | [2] 0.084 | nilotinib 0.014 | [3] -0.014 | dasatinib -0.005 | [4] 0.045 | [5] -0.03 | quisinostat -0.072 | tipifarnib 0 | [6] 0.051 | [7] 0.045 | [8] -0.068

DNAH9 (UniProt Q9NYC9)
inactive: lapatinib -0.076 | pictilisib 0.005 | crizotinib -0.018 | [1] -0.04 | duvelisib -0.039 | gandotinib 0.017 | tozasertib -0.021 | doramapimod -0.023 | bafetinib -0.051 | [2] 0.016 | nilotinib -0.078 | [3] 0.009 | dasatinib -0.011 | [4] 0.032 | [5] -0.042 | quisinostat -0.043 | tipifarnib 0.054 | [6] -0.006 | [7] -0.059 | [8] -0.027

DNTTIP2 (UniProt Q5QJE6)
inactive: lapatinib 0.003 | pictilisib -0.066 | crizotinib -0.061 | [1] -0.029 | duvelisib 0.071 | gandotinib 0.057 | tozasertib 0.052 | doramapimod 0.18 | bafetinib -0.053 | [2] 0.116 | nilotinib -0.116 | [3] -0.176 | dasatinib -0.024 | [4] -0.047 | [5] -0.121 | quisinostat -0.046 | tipifarnib -0.057 | [6] 0.038 | [7] -0.01 | [8] 0.009

DIAPH3 (UniProt Q9NSV4)
inactive: lapatinib 0.068 | pictilisib 0.005 | crizotinib 0.003 | [1] 0.039 | duvelisib -0.043 | gandotinib -0.102 | tozasertib -0.017 | doramapimod 0.036 | bafetinib -0.075 | [2] 0.135 | nilotinib -0.019 | [3] 0.019 | dasatinib -0.167 | [4] -0.021 | [5] 0.029 | quisinostat -0.093 | tipifarnib -0.041 | [6] 0.057 | [7] 0.077 | [8] 0.019

Reprinted at random: 2 entries already listed.
DNAH9 (UniProt Q9NYC9)
inactive: lapatinib -0.076 | pictilisib 0.005 | crizotinib -0.018 | [1] -0.04 | duvelisib -0.039 | gandotinib 0.017 | tozasertib -0.021 | doramapimod -0.023 | bafetinib -0.051 | [2] 0.016 | nilotinib -0.078 | [3] 0.009 | dasatinib -0.011 | [4] 0.032 | [5] -0.042 | quisinostat -0.043 | tipifarnib 0.054 | [6] -0.006 | [7] -0.059 | [8] -0.027

DIAPH3 (UniProt Q9NSV4)
inactive: lapatinib 0.068 | pictilisib 0.005 | crizotinib 0.003 | [1] 0.039 | duvelisib -0.043 | gandotinib -0.102 | tozasertib -0.017 | doramapimod 0.036 | bafetinib -0.075 | [2] 0.135 | nilotinib -0.019 | [3] 0.019 | dasatinib -0.167 | [4] -0.021 | [5] 0.029 | quisinostat -0.093 | tipifarnib -0.041 | [6] 0.057 | [7] 0.077 | [8] 0.019

Next part.

DNM1L isoform 6 (UniProt O00429)
inactive: lapatinib -0.002 | pictilisib -0.015 | crizotinib -0.034 | [1] 0.045 | duvelisib 0.014 | gandotinib -0.097 | tozasertib 0.008 | doramapimod 0.02 | bafetinib -0.006 | [2] -0.01 | nilotinib 0 | [3] -0.001 | dasatinib -0.031 | [4] -0.006 | [5] 0.033 | quisinostat 0.019 | tipifarnib -0.004 | [6] -0.002 | [7] 0.021 | [8] 0.009

DGAT1 (UniProt O75907)
inactive: lapatinib -0.034 | pictilisib 0.013 | crizotinib -0.042 | [1] -0.085 | duvelisib 0.007 | gandotinib 0.122 | tozasertib 0.012 | doramapimod -0.005 | bafetinib -0.058 | [2] 0.071 | nilotinib -0.016 | [3] 0.006 | dasatinib 0.13 | [4] -0.207 | [5] -0.064 | quisinostat -0.125 | tipifarnib -0.011 | [6] 0.034 | [7] -0.07 | [8] -0.01

DHX36 (UniProt Q9H2U1)
inactive: lapatinib -0.026 | pictilisib -0.036 | crizotinib 0.002 | [1] 0.008 | duvelisib 0.015 | gandotinib 0 | tozasertib -0.021 | doramapimod 0 | bafetinib -0.001 | [2] 0.028 | nilotinib 0.013 | [3] 0.016 | dasatinib 0.022 | [4] -0.013 | [5] -0.003 | quisinostat 0.032 | tipifarnib 0.021 | [6] 0.017 | [7] -0.034 | [8] 0

DHRS2 (UniProt Q13268)
inactive: lapatinib 0.001 | pictilisib 0.015 | crizotinib 0.039 | [1] 0.082 | duvelisib -0.001 | gandotinib -0.02 | tozasertib -0.008 | doramapimod -0.015 | bafetinib -0.102 | [2] -0.123 | nilotinib -0.007 | [3] 0.006 | dasatinib 0.011 | [4] -0.055 | [5] 0.037 | quisinostat 0.051 | tipifarnib 0.081 | [6] -0.025 | [7] -0.043 | [8] 0.028
